Among the data in paper PMC8670036 are binding values, retold here.

No constants are given. Whether binding was seen depends on the method and setting. In cells and extracts the contact can be indirect. For some assays here: A result given as binding can be weak or reduced; the word gives no strength. Tags and fused reporters may be left off the sequences shown.

For one test, the target named is HA-Trim28-△PB. Briefly: co-IP.
A further test addresses HA-Trim28-△RBCC. Kind of test: co-IP.

B1: Flag-tagged Tas (protein, UniProt P14353 1-300)
chain: MDSYEKEESVASTSGIQDLQTLSELVGPENAGEGELTIAEEPEENPRRPRRYTKREVKCVSYHAYKEIEDKHPQHIKLQDWIPTPEEMSKSLCKRLILCGLYSAEKASEILRMPFTVSWEQSDTDPDCFIVSYTCIFCDAVIHDPMPIRWDPEVGIWVKYKPLRGIVGSAVFIMHKHQRNCSLVKPSTSCSEGPKPRPRHDPVLRCDMFEKHHKPRQKRPRRRSIDNESCASSSDTMANEPGSLCTNPLWNPGPLLSGLLEESSNLPNLEVHMSGGPFWEEVYGDSILGPPSGSGEHSVL
Regarding B1, the results for the binding result with HA-Trim28-△PB and in the test with HA-Trim28-△RBCC were “binds” and “no binding”, respectively.
